PubChem BioAssay (NCATS)
This list was built around the results that the source calls inconclusive (neither active nor inactive); the mix of calls is not that of the screen. A call without a number means that no potency is given here. For some assays here: Where the call is inconclusive, the potency comes from a doubtful curve fit. Activity calls are given as the source filed them. Unless noted, calls follow the shape of the dose curve; as a rule, active = well fitted curve in the direction sought with a large enough effect; inconclusive = small, poorly fitted or top-dose-only effect, or another doubt; inactive = no such curve, though single readings can be large; an effect the other way counts as inactive or inconclusive.

Protein sequences, listed by entry. Tags and fused reporters are not part of them. Lines headed by an entry give the natural chain unless they say otherwise; changes in a name come on top.
UniProt P03372, whole entry, looked up: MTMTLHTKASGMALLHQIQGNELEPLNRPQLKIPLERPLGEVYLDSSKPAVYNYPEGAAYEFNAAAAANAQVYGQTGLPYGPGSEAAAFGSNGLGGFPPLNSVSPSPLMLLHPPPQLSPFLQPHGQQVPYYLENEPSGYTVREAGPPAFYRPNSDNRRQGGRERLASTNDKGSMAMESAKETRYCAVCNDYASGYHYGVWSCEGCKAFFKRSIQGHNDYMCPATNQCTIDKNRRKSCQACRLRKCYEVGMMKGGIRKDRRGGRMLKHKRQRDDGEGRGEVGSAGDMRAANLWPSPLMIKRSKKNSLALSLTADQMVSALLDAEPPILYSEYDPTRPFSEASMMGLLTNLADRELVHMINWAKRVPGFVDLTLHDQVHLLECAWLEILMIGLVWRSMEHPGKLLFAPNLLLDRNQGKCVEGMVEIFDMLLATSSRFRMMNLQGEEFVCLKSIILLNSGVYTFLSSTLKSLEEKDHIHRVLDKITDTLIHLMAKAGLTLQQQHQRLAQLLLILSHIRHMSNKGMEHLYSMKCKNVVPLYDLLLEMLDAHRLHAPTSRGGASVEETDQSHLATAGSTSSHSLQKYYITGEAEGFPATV
UniProt P11473: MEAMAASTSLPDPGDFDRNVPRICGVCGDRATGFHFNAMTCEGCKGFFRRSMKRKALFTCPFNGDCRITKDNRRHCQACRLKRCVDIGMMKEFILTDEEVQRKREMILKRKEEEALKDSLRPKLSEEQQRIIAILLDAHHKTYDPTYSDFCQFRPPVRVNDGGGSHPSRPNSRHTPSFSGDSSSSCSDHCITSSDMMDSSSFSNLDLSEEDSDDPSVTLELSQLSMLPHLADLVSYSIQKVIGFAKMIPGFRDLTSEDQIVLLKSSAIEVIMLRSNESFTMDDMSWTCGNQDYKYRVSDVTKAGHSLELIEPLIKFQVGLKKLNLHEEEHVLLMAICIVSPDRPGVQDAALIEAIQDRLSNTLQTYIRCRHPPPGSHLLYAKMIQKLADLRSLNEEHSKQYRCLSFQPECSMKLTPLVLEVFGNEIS
UniProt P19793: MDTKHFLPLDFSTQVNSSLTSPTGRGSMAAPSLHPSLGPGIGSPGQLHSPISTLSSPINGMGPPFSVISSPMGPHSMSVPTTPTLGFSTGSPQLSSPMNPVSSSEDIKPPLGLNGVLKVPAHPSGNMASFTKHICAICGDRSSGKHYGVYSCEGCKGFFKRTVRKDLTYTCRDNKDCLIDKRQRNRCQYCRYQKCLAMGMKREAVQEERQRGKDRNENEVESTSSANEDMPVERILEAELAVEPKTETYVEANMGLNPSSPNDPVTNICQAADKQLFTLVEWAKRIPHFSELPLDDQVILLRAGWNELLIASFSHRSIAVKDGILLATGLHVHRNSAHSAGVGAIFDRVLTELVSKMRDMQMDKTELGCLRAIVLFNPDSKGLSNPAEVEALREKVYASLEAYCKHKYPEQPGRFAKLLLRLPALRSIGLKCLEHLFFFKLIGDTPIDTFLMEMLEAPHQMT
UniProt P08684, whole entry, looked up: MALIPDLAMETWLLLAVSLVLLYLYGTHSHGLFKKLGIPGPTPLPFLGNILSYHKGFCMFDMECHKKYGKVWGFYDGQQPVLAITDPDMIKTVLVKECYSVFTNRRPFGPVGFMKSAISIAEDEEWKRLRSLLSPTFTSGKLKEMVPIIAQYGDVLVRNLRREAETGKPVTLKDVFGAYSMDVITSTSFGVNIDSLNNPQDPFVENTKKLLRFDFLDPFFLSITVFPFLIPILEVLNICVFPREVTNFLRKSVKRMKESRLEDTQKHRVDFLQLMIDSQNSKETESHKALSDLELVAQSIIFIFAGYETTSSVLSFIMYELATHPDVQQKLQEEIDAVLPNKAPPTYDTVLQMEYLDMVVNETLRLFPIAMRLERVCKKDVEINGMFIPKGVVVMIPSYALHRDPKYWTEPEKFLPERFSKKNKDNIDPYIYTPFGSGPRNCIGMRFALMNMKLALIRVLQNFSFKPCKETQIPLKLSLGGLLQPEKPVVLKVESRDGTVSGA
UniProt P10828: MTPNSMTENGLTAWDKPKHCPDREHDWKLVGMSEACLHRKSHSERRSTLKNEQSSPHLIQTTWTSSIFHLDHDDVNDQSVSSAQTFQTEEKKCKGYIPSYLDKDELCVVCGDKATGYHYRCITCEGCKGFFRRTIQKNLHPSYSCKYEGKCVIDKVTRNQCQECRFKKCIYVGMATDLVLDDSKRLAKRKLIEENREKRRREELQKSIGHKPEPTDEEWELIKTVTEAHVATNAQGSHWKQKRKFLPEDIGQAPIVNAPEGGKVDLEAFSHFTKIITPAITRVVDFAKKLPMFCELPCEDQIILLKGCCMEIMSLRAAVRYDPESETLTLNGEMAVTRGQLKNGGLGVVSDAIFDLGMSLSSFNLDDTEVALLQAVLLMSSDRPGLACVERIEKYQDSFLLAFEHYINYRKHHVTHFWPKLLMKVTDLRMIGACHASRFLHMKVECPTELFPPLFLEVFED

Key:
[1] = MultiTox-Fluor Cytotoxicity Assay - LYMP1-001 - Live Cells (AID 947)
[2] = Cell Viability - LYMP2-004 (AID 966); conditions: LYMP2-004 lymphoblastoid cell viability, qHTS; activity change, negative = cytotoxicity: at 92.2 µM (top of the series); also: nearly all actives have a fitted effect of over 65% in size
Summary of the method: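 qHTS cytotoxicity: human lymphoblastoid line, 24 hr compound treatment, 37 C, complete medium. Viability read as cellular ATP via luciferase luminescence; tetraoctylammonium bromide served as positive control.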

[3] = Cell Viability - LYMP2-005 (AID 967); also: potency is read from the fitted curve at half-maximal effect
Summary of the method: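 Luciferase-based ATP quantitation served as the viability measure in human lymphoblastoid LYMP2-005 cells exposed to test compounds for 24 h at 37 C in complete culture medium. Potency (AC50) was obtained by fitting concentration-response curves with the Hill equation.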

[4] = Cell Viability - LYMP2-021 (AID 974);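 also: compound exposure lasts 24 hours at 37 °C; nearly all actives have a fitted effect of over 55% in size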
Summary of the method: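 Loss of cellular ATP, measured with a luciferase-based CellTiter-Glo readout, serves as the toxicity signal in human lymphoblastoid cells treated for 24 hours at 37 C. Potency is reported as AC50 from a standard Hill model.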

[5] = molecular target: Estrogen receptor (Homo sapiens) (UniProt P03372); experiment: qHTS assay for small molecule antagonists of estrogen receptor alpha signaling (AID 588513; active = well fitted curve in the direction sought with a large enough effect in the signal ratio, with a control signal flat, not every such curve was filed as active; inconclusive = small, poorly fitted or top-dose-only effect, or effect the other way, or a change in a side signal; inactive = no such curve, though single readings can be large or run the other way; the % refers to the signal ratio); conditions: ER-alpha-UAS-bla HEK293, beta-lactamase ratio, antagonist mode; activity, negative = inhibition: at 76.9 µM (top of the series) unless noted
Summary of the method: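 Antagonist-mode qHTS in ER-alpha-UAS-bla HEK 293 cells: compound titration, 0.5nM estradiol for 18 h, CCF4 fluorescence, Hill-derived IC50.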

[6] = molecular target: Vitamin D3 receptor (Homo sapiens) (UniProt P11473); experiment: qHTS assay for small molecule antagonists of vitamin D receptor signaling (AID 588541; calls by dose curve;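 also: receptor activated by calcitriol during compound treatment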); conditions: HEK293T VDR-UAS-bla, beta-lactamase ratio, antagonist mode; activity change, negative = inhibition: at 76.7 µM (top of the series)
[7] = molecular target: Retinoic acid receptor RXR-alpha (Homo sapiens) (UniProt P19793); experiment: qHTS assay for small molecule agonists of retinoid X receptor alpha signaling (AID 588544; calls by dose curve); conditions: HEK293T RXRa-UAS-bla, beta-lactamase reporter, 18 h; activation: at 76.7 µM (top of the series)
[8] = qHTS assay to identify small molecules that stimulate interleukin-8 (IL-8) secretion (AID 651758; active = well fitted activation curve with a large enough effect in the signal ratio; inconclusive = small, poorly fitted or top-dose-only effect, or effect the other way, or a change in a side signal; the % refers to the signal ratio); conditions: HTRF ratio (665/615); activation: at 92.2 µM (top of the series)
Summary of the method: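 Quantitative HTS in THP-1 monocytic cells at 2000 cells per well, with 16 hrs compound incubation at 37 C. IL-8 in the medium was then quantified by HTRF immunoassay, read after 1-3 hrs at room temperature.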

[9] = molecular target: Cytochrome P450 3A4 (Homo sapiens) (UniProt P08684); experiment: qHTS Assay for Inhibitors and Substrates of Cytochrome P450 3A4 (AID 884); conditions: recombinant CYP3A4, Luciferin-PPXE luminescence; activity change, negative = inhibition: at 57.1 µM (top of the series) unless noted; also: nearly all actives have a fitted effect of over 50% in size
Summary of the method: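 Luminescent readout of luciferin produced by CYP3A4 (20 nM) dealkylation of Luciferin-PPXE, 25 uM (its KM). NADPH-driven reaction ran 60 min at RT after 10 min compound preincubation; data scaled to 57 uM ketoconazole as 100% inhibition.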

[10] = MultiTox-Fluor Cytotoxicity Assay - LYMP1-002 - Dead Cells (AID 960); conditions: LYMP1-002 lymphoblastoid cells, dead-cell protease fluorescence; cytotoxicity (dead cells): at 46.1 µM (top of the series); also: nearly all actives have a fitted effect of over 60% in size
Summary of the method: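 Cells were plated, rested 5 hr, then treated with compound dilution series for 16 hr at 37 C. After adding substrate reagent and 60 min at room temperature, dead-cell protease fluorescence gave concentration-response curves fitted by the Hill equation.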

[11] = Cell Viability - LYMP2-008 (AID 980); also: nearly all actives have a fitted effect of over 60% in size
Summary of the method: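 Cells seeded at 2500/well and rested 5 hr at 37 C; compounds added over a concentration range and incubated 24 hr at 37 C; CellTiter-Glo added, 30 min at room temperature; luminescence read and AC50 fitted with Hill model.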

[12] = Cell Viability - LYMP2-020 (AID 986); conditions: activity change, negative = viability loss: at 92.2 µM (top of the series); also: nearly all actives have a fitted effect of over 55% in size
Summary of the method: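 Seed 2500 cells per well and incubate 5 hr at 37 C. Add compounds at a concentration series and incubate 24 hr at 37 C. Add CellTiter-Glo, wait 30 min at RT, read luminescence, and fit a Hill curve for AC50.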

[13] = Cell Viability - LYMP1-002 - Assay at 40 hr (AID 994); conditions: LYMP1-002 lymphoblastoid cell viability; at 92.2 µM (top of the series); also: nearly all actives have a fitted effect of over 60% in size
Summary of the method: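 Cells are plated at 2500 per well and rested 5 hr at 37 C. Compounds are added and incubated 40 hr at 37 C. CellTiter-Glo reagent is added for 30 min at room temperature before luminescence is read.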

[14] = molecular target: Peroxisome proliferator-activated receptor gamma (Homo sapiens) (UniProt P37231); experiment: qHTS assay for small molecule antagonists of peroxisome proliferator-activated receptor gamma signaling (AID 588537; active = well fitted inhibition curve with a large enough effect in the signal ratio, with a control signal flat, not every such curve was filed as active; inconclusive = small, poorly fitted or top-dose-only effect, or effect the other way, or a change in a side signal; the % refers to the signal ratio;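 also: reporter cells co-stimulated with 50 nM rosiglitazone agonist during compound treatment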); conditions: HEK293 PPARg-UAS-bla, beta-lactamase ratio, antagonist mode; activity, negative = inhibition: at 76.8 µM (top of the series) unless noted
Summary of the method: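 Compounds are tested as concentration series for inhibition of rosiglitazone-driven (50 nM) reporter expression in GeneBLAzer PPAR-gamma-UAS-bla HEK293 cells. After 16 h at 37 C, CCF4 substrate is added for 2 h at room temperature and blue/green fluorescence is measured.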

[15] = molecular target: Thyroid hormone receptor beta (Homo sapiens) (UniProt P10828); experiment: qHTS assay for small molecule antagonists of thyroid hormone receptor beta signaling (AID 588547; active = well fitted inhibition curve with a large enough effect in the signal ratio, with a control signal flat, not every such curve was filed as active; inconclusive = small, poorly fitted or top-dose-only effect, or effect the other way, or a change in a side signal; the % refers to the signal ratio;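 also: cells stimulated with 0.4 nM T3 agonist during compound exposure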); conditions: TR-UAS-bla HEK293, beta-lactamase ratio, antagonist mode, 18 h
Summary of the method: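 TR-UAS-bla GripTite HEK293 cells in 2% charcoal/dextran FBS medium were preincubated 4 h at 37 C, given compound (0.59 nM to 92 uM) plus 0.4 nM T3 (final) for 18 h, then CCF4 for 2 h at RT; Hill fit gave IC50.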

[16] = qHTS assay for small molecule agonists of the antioxidant response element (ARE) signaling pathway (AID 651741; active = well fitted activation curve with a large enough effect in the signal ratio; inconclusive = small, poorly fitted or top-dose-only effect, or effect the other way, or a change in a side signal; the % refers to the signal ratio); conditions: HepG2 ARE-bla reporter, beta-lactamase FRET ratio, 16 h; activation: at 96 µM (top of the series) unless noted
Summary of the method: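 Reporter: beta-lactamase under ARE, stably in HepG2. Exposure: 16 h, 37 C, compounds delivered in DMSO by pin tool after 5 h cell preincubation. Readout: FRET substrate fluorescence after 2 h at RT.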

[17] = molecular target: Estrogen receptor (Homo sapiens) (UniProt P03372); experiment: qHTS assay for small molecule agonists of estrogen receptor alpha signaling (AID 588514; calls by dose curve; also: nearly all actives have a fitted effect of over 70% in size); conditions: ER-alpha-UAS-bla HEK293, beta-lactamase ratio, 18 h; activation: at 76.8 µM (top of the series), percent of full estradiol response, vehicle zero unless noted
Summary of the method: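 Efficacy is expressed against 20 nM 17-beta-estradiol (100%) and DMSO basal (0%); EC50 from Hill equation. Assay: beta-lactamase reporter in ER-alpha-UAS-bla HEK 293 cells, 18 h compound incubation, CCF4 detection.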

[18] = Cell Viability - LYMP2-002 (AID 977);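 also: compound exposure lasted 24 h at 37 °C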
Summary of the method: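 In this qHTS viability screen, 2500 human lymphoblastoid cells per well receive compound for 24 hr at 37 C, and luciferase-based ATP luminescence gives the viability signal. Tetraoctylammonium bromide serves as positive control.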

[19] = molecular target: Thyroid hormone receptor beta (Homo sapiens) (UniProt P10828); experiment: qHTS assay for small molecule agonists of thyroid hormone receptor beta signaling (AID 588545; calls by dose curve); conditions: TR-UAS-bla GripTite HEK 293, beta-lactamase ratio, agonist mode, 18 h; activation: at 76.7 µM, percent of T3 response, DMSO as zero
Summary of the method: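 Agonist-mode beta-lactamase reporter assay, HEK 293 cells, 2% charcoal/dextran FBS; cells plated 4 hrs, compound 18 hrs at 37 C, CCF4 2 hrs RT. Normalized to 10 nM T3 (100%) and DMSO (0%); Hill fit gives EC50, efficacy.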

[20] = qHTS assay for small molecule antagonists of the retinoid-related orphan receptor gamma (ROR-gamma) signaling pathway - cell viability counter screen (AID 720652; active = well fitted curve in the direction sought with a large enough effect in the repeat runs; inconclusive = weak or mixed curves; inactive = no such curve, though single readings can be large; an effect the other way counts as inactive or inconclusive;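 also: CHO reporter cells with doxycycline-induced ROR-gamma expression; compound exposure lasted 16 hr before ATP read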)
Summary of the method: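 Steps: seed CHO cells bearing TET-inducible ROR and ROR response element-luciferase; rest 5 hr at 37 C; add compound, then doxycycline; incubate 16 hr; add CellTiter-Glo and read luminescence as ATP-based viability.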

SMILES: COc1ccc(N)c(C)c1
- Potency [1]: inactive
- Potency [2]: inactive
- Potency [3]: inconclusive: 79.4 µM [rising, single point]
- Potency [4]: inactive
- Potency [5]: inactive
- Potency [6]: inactive
- Potency [7]: inactive
- activation [8]: inconclusive: 13.9%

SMILES: O=C(Cl)c1c(Cl)cccc1Cl
- Potency [9]: inactive
- Potency [10]: inactive
- Potency [2]: inactive
- Potency [11]: inactive
- Potency [12]: inactive
- viability change, negative = cytotoxic [13]: inactive: -5.27%
- Potency [5]: inactive
- activity, negative = inhibition [14]: inconclusive: 1.04%
- activity change % (negative = inhibition) [15]: inactive: -15.6%
- Potency [16]: inactive
- activation [8]: inconclusive: 12.7%

SMILES: COC(OC)(C(=O)c1ccccc1)c1ccccc1
- activation [17]: inconclusive: 49.1%

SMILES: CCC(C)(C)C
- Potency [10]: inactive
- Potency [18]: inactive
- Potency [5]: inactive
- activity, negative = inhibition [14]: inconclusive: 0.478%
- activation [19]: inconclusive: -36.9%
- Potency [20]: inactive
